# Measurements as given in the supplement of paper PMC4604168 (melanoma cell lines).
# The list shows a part of the results. Single values are uncertain, as repeats are few or missing.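 The apoptosis fraction was the count of cleaved-PARP antibody-stained nuclei relative to all DNA-stained nuclei, imaged in 1,536-well plates. Screening doses were set so most cells survived, and baseline and induced cleaved-PARP levels vary greatly across cell lines.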
# How the values were obtained:
# Test in all cases: cleaved PARP positive nuclei fraction relative to DMSO control; melanoma cells; higher = more apoptosis
# Settings in all cases: library dose: low library concentration; 72 h
# MZ2-MEL = test system: MZ2-MEL
# MeWo = test system: MeWo
# RPMI7951 = test system: RPMI7951
# RVH-421 = test system: RVH-421
# SkMel28 = test system: SkMel28
# SkMel2 = test system: SkMel2
# SkMel30 = test system: SkMel30
# SkMel5 = test system: SkMel5
# UACC257 = test system: UACC257
# UACC62 = test system: UACC62
# WM115 = test system: WM115
# WM1716 = test system: WM1716
# WM1745 = test system: WM1745
# WM3526 = test system: WM3526
# WM3619 = test system: WM3619
# WM451Lu = test system: WM451Lu
SMILES,cleaved PARP positive nuclei fraction (MZ2-MEL) [%],cleaved PARP positive nuclei fraction (MeWo) [%],cleaved PARP positive nuclei fraction (RPMI7951) [%],cleaved PARP positive nuclei fraction (RVH-421) [%],cleaved PARP positive nuclei fraction (SkMel28) [%],cleaved PARP positive nuclei fraction (SkMel2) [%],cleaved PARP positive nuclei fraction (SkMel30) [%],cleaved PARP positive nuclei fraction (SkMel5) [%],cleaved PARP positive nuclei fraction (UACC257) [%],cleaved PARP positive nuclei fraction (UACC62) [%],cleaved PARP positive nuclei fraction (WM115) [%],cleaved PARP positive nuclei fraction (WM1716) [%],cleaved PARP positive nuclei fraction (WM1745) [%],cleaved PARP positive nuclei fraction (WM3526) [%],cleaved PARP positive nuclei fraction (WM3619) [%],cleaved PARP positive nuclei fraction (WM451Lu) [%]
"CN(c1ncccc1CNc1nc(Nc2ccc3c(c2)CC(=O)N3)ncc1C(F)(F)F)S(C)(=O)=O + CC(C)(C)c1cnc(CSc2cnc(NC(=O)C3CCNCC3)s2)o1 [SNS-032] (first compound 0.08 µM, partner dose 0.01 µM)",158,221,60.9,99.9,88.2,151,182,98.7,74.9,207,128,108,115,161,98.9,81.7
"CN(c1ncccc1CNc1nc(Nc2ccc3c(c2)CC(=O)N3)ncc1C(F)(F)F)S(C)(=O)=O + N#Cc1c(O)c2c(-c3ccc(-c4ccccc4O)cc3)csc2[nH]c1=O [A769662] (first compound 0.08 µM, partner dose 2 µM)",196,74.9,183,78.9,48.1,179,99.6,88.5,82.1,79,301,109,107,385,102,192
"NC(=O)c1ccc(N(C(N)=O)c2c(F)cccc2F)nc1-c1ccc(F)cc1F + Cc1cc(N2CCOCC2)cc2[nH]c(-c3c(NC[C@@H](O)c4cccc(Cl)c4)cc[nH]c3=O)nc12 [BMS536924] (first compound 0.4 µM, partner dose 0.2 µM)",37.5,33.2,81.4,85.2,131,58,243,78.7,200,38.8,29.7,105,131,54,159,37
"Cn1cnc2c(F)c(Nc3ccc(Br)cc3Cl)c(C(=O)NOCCO)cc21 [selumetinib] + C=CCn1c(=O)c2cnc(Nc3ccc(N4CCN(C)CC4)cc3)nc2n1-c1cccc(C(C)(C)O)n1 [MK1775] (first compound 0.015 µM, partner dose 0.02 µM)",745,197,151,99.6,182,171,90.2,63.8,162,198,327,44.8,105,85.7,117,190
"CC1(C)CCC(c2ccc(Cl)cc2)=C(CN2CCN(c3ccc(C(=O)NS(=O)(=O)c4ccc(N[C@H](CCN5CCOCC5)CSc5ccccc5)c(S(=O)(=O)C(F)(F)F)c4)cc3)CC2)C1 + Cc1cc([N+](=O)[O-])ccc1NS(=O)(=O)c1cc(Cl)ccc1Cl [FH535] (first compound 0.4 µM, partner dose 1 µM)",139,447,148,147,164,103,169,2050,161,116,642,254,519,258,98.5,146
"COc1ccc(C2=N[C@@H](c3ccc(Cl)cc3)[C@@H](c3ccc(Cl)cc3)N2C(=O)N2CCNC(=O)C2)c(OC(C)C)c1 [Nutlin-3] + CN(C)S(=O)(=O)c1ccc2c(c1)/C(=C/c1cc3c([nH]1)CCCC3)C(=O)N2 [SU6656] (first compound 0.1 µM, partner dose 0.4 µM)",216,55,160,45.2,182,50.9,62.5,74.4,79.7,80.7,45.6,15.3,109,100,77.7,78.2
"CS(=O)(=O)c1ccc(C(=O)Nc2ccc(Cl)c(-c3ccccn3)c2)c(Cl)c1 [vismodegib] + COc1ccc(COc2ccc(Cc3cnc(N)nc3N)cc2OC)cc1 [GW2580] (first compound 1 µM, partner dose 1 µM)",95.6,70.6,275,24.4,109,69.8,62.6,61,111,181,66.5,58.2,94.8,297,70.4,73
"NC1(c2ccc(-c3nc4ccn5c(=O)[nH]nc5c4cc3-c3ccccc3)cc2)CCC1 + CC1(C)NC(=O)N(c2ccc([N+](=O)[O-])c(C(F)(F)F)c2)C1=O [nilutamide] (first compound 0.4 µM, partner dose 1 µM)",57.8,101,44,22.4,160,64.3,67,42.8,125,83.6,74.6,60.2,94.4,73.8,90.2,51.2
"COc1ccc(C2=N[C@@H](c3ccc(Cl)cc3)[C@@H](c3ccc(Cl)cc3)N2C(=O)N2CCNC(=O)C2)c(OC(C)C)c1 [Nutlin-3] + O=c1cc(-c2cccc3c2Sc2ccccc2S3)oc(N2CCOCC2)c1 [KU55933] (first compound 0.1 µM, partner dose 1 µM)",81.8,205,60.6,122,145,71.1,25,233,185,131,81.2,54.8,104,244,111,20.9
"CCN(CC)CCNC(=O)c1c(C)[nH]c(/C=C2\C(=O)Nc3ccc(F)cc32)c1C [sunitinib] + NC(=O)Nc1cc(-c2cccc(F)c2)sc1C(=O)N[C@H]1CCCNC1 [AZD7762] (first compound 0.4 µM, partner dose 0.02 µM)",83.1,251,107,73.7,64.3,122,150,110,93.8,124,139,72.4,109,469,101,61.5
"C[C@@H](N)c1ccc(C(=O)Nc2ccnc3[nH]ccc23)cc1 + CC1(C)NC(=O)N(c2ccc([N+](=O)[O-])c(C(F)(F)F)c2)C1=O [nilutamide] (first compound 0.4 µM, partner dose 1 µM)",144,217,233,56.7,244,46.4,54.9,165,97.8,76.9,179,119,103,48.3,95.8,79.9
"NC1(c2ccc(-c3nc4ccn5c(=O)[nH]nc5c4cc3-c3ccccc3)cc2)CCC1 + Cn1cncc1[C@@](N)(c1ccc(Cl)cc1)c1ccc2c(c1)c(-c1cccc(Cl)c1)cc(=O)n2C [tipifarnib] (first compound 0.4 µM, partner dose 0.01 µM)",75.8,132,141,29.5,173,101,70.1,104,111,460,287,70.4,109,519,120,67.9
"CCCCCCCCc1ccc(CCC(N)(CO)CO)cc1 [fingolimod] + COc1ccc(-c2ccc3c(N4CCOCC4)nc(N4C[C@@H](C)O[C@@H](C)C4)nc3n2)cc1CO [KU0063794] (first compound 2 µM, partner dose 0.02 µM)",109,39.1,190,40.5,349,144,394,171,319,195,110,192,158,167,134,34.7
"COc1ccc(C2=N[C@@H](c3ccc(Cl)cc3)[C@@H](c3ccc(Cl)cc3)N2C(=O)N2CCNC(=O)C2)c(OC(C)C)c1 [Nutlin-3] + CC1(C)NC(=O)N(c2ccc([N+](=O)[O-])c(C(F)(F)F)c2)C1=O [nilutamide] (first compound 0.1 µM, partner dose 1 µM)",138,204,45,118,58.2,87,53.1,214,257,141,158,103,235,55.1,125,53.6
"CN(c1ncccc1CNc1nc(Nc2ccc3c(c2)CC(=O)N3)ncc1C(F)(F)F)S(C)(=O)=O + Cn1cc(/C=C2\C(=O)Nc3cccnc32)c2ccccc21 [GW441756] (first compound 0.08 µM, partner dose 0.4 µM)",55.5,123,121,118,232,37.9,101,99.3,111,164,291,60.7,110,50.2,84.3,84.9
"COc1ccc(C2=N[C@@H](c3ccc(Cl)cc3)[C@@H](c3ccc(Cl)cc3)N2C(=O)N2CCNC(=O)C2)c(OC(C)C)c1 [Nutlin-3] + COc1cc2ncnc(Nc3ccc(Oc4ccccc4)cc3)c2cc1OC [SrcI1] (first compound 0.1 µM, partner dose 2 µM)",44.8,58.2,160,134,243,78.9,243,78.8,75.5,108,124,92.4,98,161,99.3,37.3
"Cn1sc(=O)n(Cc2ccccc2)c1=O + CN(C)S(=O)(=O)c1ccc2c(c1)/C(=C/c1cc3c([nH]1)CCCC3)C(=O)N2 [SU6656] (first compound 0.4 µM, partner dose 0.4 µM)",60.1,109,171,45,67.4,60.6,298,34.2,74.4,79.7,419,101,103,62.9,100,86.1
"COc1ccc(C2=N[C@@H](c3ccc(Cl)cc3)[C@@H](c3ccc(Cl)cc3)N2C(=O)N2CCNC(=O)C2)c(OC(C)C)c1 [Nutlin-3] + NC(=O)Nc1cc(-c2cccc(F)c2)sc1C(=O)N[C@H]1CCCNC1 [AZD7762] (first compound 0.1 µM, partner dose 0.02 µM)",117,74.3,99.4,109,59.9,111,77.5,150,97.9,93.7,120,125,103,35.4,138,173

# Single records, from the list above. Values in the order: cleaved PARP positive nuclei fraction (MZ2-MEL) [%] | cleaved PARP positive nuclei fraction (MeWo) [%] | cleaved PARP positive nuclei fraction (RPMI7951) [%] | cleaved PARP positive nuclei fraction (RVH-421) [%] | cleaved PARP positive nuclei fraction (SkMel28) [%] | cleaved PARP positive nuclei fraction (SkMel2) [%] | cleaved PARP positive nuclei fraction (SkMel30) [%] | cleaved PARP positive nuclei fraction (SkMel5) [%] | cleaved PARP positive nuclei fraction (UACC257) [%] | cleaved PARP positive nuclei fraction (UACC62) [%] | cleaved PARP positive nuclei fraction (WM115) [%] | cleaved PARP positive nuclei fraction (WM1716) [%] | cleaved PARP positive nuclei fraction (WM1745) [%] | cleaved PARP positive nuclei fraction (WM3526) [%] | cleaved PARP positive nuclei fraction (WM3619) [%] | cleaved PARP positive nuclei fraction (WM451Lu) [%]
# CN(c1ncccc1CNc1nc(Nc2ccc3c(c2)CC(=O)N3)ncc1C(F)(F)F)S(C)(=O)=O + N#Cc1c(O)c2c(-c3ccc(-c4ccccc4O)cc3)csc2[nH]c1=O [A769662] (first compound 0.08 µM, partner dose 2 µM) in the list: 196 | 74.9 | 183 | 78.9 | 48.1 | 179 | 99.6 | 88.5 | 82.1 | 79 | 301 | 109 | 107 | 385 | 102 | 192
# CN(c1ncccc1CNc1nc(Nc2ccc3c(c2)CC(=O)N3)ncc1C(F)(F)F)S(C)(=O)=O + Cn1cc(/C=C2\C(=O)Nc3cccnc32)c2ccccc21 [GW441756] (first compound 0.08 µM, partner dose 0.4 µM) in the list: 55.5 | 123 | 121 | 118 | 232 | 37.9 | 101 | 99.3 | 111 | 164 | 291 | 60.7 | 110 | 50.2 | 84.3 | 84.9
